Reference: paper PMC10366545, “Phosphoregulation of DNA repair via the Rad51 auxiliary factor Swi5–Sfr1” (The Journal of Biological Chemistry, 2023)
These are yes or no findings as the source states them, for the method shown. A result given as binding can be weak or reduced; the word gives no strength. Blank lines part the entries; values can stand above or below the molecule they belong to.

The chains behind the UniProt entries cited, without tags or fusion partners. Where a name states a change or a piece, a line headed by the entry shows the natural chain unless it says otherwise.
UniProt Q9USV1: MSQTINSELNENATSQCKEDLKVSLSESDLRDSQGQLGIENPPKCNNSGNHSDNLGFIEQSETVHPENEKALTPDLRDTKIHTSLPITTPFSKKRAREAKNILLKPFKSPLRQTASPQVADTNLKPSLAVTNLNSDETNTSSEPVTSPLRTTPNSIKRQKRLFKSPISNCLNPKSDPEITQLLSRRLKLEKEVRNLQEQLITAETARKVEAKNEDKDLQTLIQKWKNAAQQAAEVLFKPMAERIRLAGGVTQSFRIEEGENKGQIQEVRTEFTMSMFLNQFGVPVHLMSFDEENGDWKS

What was measured:
Rad51 (S. pombe) = biological target: T1, Rad51 (S. pombe) (UniProt P36601); assay: pull-down; filament binding assay: Rad51 (3.33 μM) filaments on circular ssDNA (10 μMnt) held on streptavidin beads through a biotinylated oligonucleotide; 3.33 μM S5S1 added, 5 min 37 °C; 25 mM Tris-Cl 7.5, 100 mM NaCl, 3.5 mM MgCl2, 2 mM ATP, 0.5 mM TCEP, 5% glycerol, 0.05% Tween-20; Sfr1 signal normalised to Rad51, relative to wildtype, n = 3; both purified
T1 sequence: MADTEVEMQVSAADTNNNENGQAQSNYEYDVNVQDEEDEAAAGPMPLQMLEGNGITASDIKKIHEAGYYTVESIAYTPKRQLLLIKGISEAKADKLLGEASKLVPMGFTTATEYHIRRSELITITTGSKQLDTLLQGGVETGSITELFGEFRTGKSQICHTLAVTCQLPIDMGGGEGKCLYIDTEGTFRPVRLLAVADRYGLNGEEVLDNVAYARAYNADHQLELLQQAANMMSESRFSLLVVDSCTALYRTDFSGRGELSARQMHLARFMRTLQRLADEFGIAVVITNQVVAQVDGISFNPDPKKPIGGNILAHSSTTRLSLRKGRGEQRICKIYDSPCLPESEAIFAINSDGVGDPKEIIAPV

[1] = biological target: Swi5–Sfr1 Rad51 interaction mutant complex (S5S1-7A) (S. pombe); assay: pull-down; in solution; nickel resin holds hexahistidine-tagged S5S1; 500 nM each protein; 30 mM Tris-Cl 7.5, 100 mM KCl, 5 mM MgCl2, 1 mM ATP, 0.25 mM TCEP, 5% glycerol, 0.05% Tween-20; 30 °C 15 min, then resin 1 h at 4 °C; SDS-PAGE, Coomassie; both purified
[2] = biological target: Sfr1 7A mutant (Sfr1 chain of S5S1-7A) (S. pombe) (UniProt Q9USV1); assay: SEC; His6-Sfr1 co-expressed with Swi5 in E. coli and purified together as a complex; 16/60 Superdex 200 pg in H buffer (25 mM Hepes-KOH pH 7.5, 10% glycerol, 0.5 mM TCEP) with 200 mM KCl, 4 °C; both purified

binding (Rad51 (S. pombe)): binds weakly
Molecule: Swi5–Sfr1 Rad51 interaction mutant complex (S5S1-7A) (S. pombe)

binding [1]: binds weakly
B1: Rad51 (natural protein, S. pombe, UniProt P36601 1-365, looked up)
chain: T1 sequence
notes: Rad51 recombinase, S. pombe; also called S. pombe Rad51; Rad51-ssDNA filament

binding [2]: binds
B2: Swi5 (protein, UniProt Q9UUB7 1-85)
chain: MEKSQLESRVHLLEQQKEQLESSLQDALAKLKNRDAKQTVQKHIDLLHTYNEIRDIALGMIGKVAEHEKCTSVELFDRFGVNGSE
